# According to article PMC12667481:
# Protein sequences, listed by entry. Tags and fused reporters are not part of them.
# UniProt P13010: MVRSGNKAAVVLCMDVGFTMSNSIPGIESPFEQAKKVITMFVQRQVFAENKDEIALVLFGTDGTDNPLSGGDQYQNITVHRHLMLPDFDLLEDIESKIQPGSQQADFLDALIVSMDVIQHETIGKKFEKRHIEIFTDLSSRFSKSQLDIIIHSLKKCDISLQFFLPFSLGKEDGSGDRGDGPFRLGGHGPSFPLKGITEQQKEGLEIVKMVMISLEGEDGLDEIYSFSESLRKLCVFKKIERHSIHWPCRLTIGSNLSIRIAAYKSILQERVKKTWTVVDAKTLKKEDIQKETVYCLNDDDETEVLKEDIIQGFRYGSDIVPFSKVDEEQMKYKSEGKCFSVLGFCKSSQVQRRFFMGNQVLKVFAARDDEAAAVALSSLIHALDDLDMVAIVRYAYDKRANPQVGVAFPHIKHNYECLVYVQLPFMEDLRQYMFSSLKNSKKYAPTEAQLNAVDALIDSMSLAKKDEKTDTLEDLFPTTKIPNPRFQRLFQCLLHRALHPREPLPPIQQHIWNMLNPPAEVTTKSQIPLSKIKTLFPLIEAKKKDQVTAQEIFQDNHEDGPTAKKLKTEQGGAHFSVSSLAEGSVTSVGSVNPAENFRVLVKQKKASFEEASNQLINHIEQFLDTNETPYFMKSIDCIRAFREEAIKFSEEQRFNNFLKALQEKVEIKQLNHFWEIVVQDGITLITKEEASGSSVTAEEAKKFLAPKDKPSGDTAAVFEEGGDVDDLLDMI
# UniProt Q93009: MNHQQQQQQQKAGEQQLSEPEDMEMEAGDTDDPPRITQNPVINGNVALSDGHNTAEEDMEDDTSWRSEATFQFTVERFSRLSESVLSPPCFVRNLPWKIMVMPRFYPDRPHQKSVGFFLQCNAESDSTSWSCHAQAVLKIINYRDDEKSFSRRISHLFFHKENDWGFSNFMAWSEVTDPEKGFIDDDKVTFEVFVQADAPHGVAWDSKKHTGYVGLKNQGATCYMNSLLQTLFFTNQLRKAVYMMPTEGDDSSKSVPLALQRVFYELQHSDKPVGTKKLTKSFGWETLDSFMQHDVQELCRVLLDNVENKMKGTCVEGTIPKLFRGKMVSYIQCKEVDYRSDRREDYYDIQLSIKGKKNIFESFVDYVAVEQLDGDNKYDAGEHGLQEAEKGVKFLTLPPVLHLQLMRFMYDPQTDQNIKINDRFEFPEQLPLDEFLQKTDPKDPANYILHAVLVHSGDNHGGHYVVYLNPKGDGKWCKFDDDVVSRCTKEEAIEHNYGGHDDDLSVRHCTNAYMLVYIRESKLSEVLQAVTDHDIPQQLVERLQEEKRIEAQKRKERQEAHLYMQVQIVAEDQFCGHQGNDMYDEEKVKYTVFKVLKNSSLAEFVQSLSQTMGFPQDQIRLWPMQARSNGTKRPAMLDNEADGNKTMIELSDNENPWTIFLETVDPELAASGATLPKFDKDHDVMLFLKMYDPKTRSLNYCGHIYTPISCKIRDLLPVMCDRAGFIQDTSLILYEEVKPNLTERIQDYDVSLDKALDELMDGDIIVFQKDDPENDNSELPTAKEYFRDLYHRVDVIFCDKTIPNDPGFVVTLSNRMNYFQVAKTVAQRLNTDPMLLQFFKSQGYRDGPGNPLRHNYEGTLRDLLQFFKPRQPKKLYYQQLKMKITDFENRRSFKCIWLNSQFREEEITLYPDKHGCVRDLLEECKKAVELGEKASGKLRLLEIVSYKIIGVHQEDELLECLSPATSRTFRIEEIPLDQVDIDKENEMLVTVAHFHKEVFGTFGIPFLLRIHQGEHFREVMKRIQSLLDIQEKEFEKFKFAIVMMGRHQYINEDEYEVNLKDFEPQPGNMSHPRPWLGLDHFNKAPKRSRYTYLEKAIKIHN
# No constants are given. Whether binding was seen depends on the method and setting. In cells and extracts the contact can be indirect. Some results given as binding are weak or reduced against the parent protein; the word gives no strength.
# What was measured:
# [1] = biological target: Ku80 (endogenous) (human (endogenous in MKN1 and other GC cells)) (UniProt P13010); test: co-IP; endogenous proteins; GC cells (APOL2 with Ku80); cells not named in the text for USP7; Western blot
# Flag-Ku80 = Flag-Ku80 (UniProt P13010); test: co-IP; HEK293T cells co-transfected with tagged constructs (GFP-APOL2 or its truncations, Flag-Ku80, Myc-USP7); lysed in IP buffer; the methods name anti-GFP magnetic beads; Western blot; one panel after 50 µM formononetin (FN) for 48 h (APOL2-Ku80 interaction attenuated)
Substance,binding [1],binding (Flag-Ku80)
USP7 (endogenous) (from UniProt Q93009 1-1102) (enzyme),binds,–
Myc-USP7 (from UniProt Q93009 1-1102) (enzyme),–,binds
